Results are given in words; binding and its absence hold for the method and conditions named. In cells and extracts the contact can be indirect. Some binding calls cover weakened binding; strength is not graded here.
Target: SKIDA1-3xFLAG (UniProt Q1XH10)
Experiment: co-IP

Protein sequences, listed by entry. Tags and fused reporters are not part of them.
UniProt Q1XH10: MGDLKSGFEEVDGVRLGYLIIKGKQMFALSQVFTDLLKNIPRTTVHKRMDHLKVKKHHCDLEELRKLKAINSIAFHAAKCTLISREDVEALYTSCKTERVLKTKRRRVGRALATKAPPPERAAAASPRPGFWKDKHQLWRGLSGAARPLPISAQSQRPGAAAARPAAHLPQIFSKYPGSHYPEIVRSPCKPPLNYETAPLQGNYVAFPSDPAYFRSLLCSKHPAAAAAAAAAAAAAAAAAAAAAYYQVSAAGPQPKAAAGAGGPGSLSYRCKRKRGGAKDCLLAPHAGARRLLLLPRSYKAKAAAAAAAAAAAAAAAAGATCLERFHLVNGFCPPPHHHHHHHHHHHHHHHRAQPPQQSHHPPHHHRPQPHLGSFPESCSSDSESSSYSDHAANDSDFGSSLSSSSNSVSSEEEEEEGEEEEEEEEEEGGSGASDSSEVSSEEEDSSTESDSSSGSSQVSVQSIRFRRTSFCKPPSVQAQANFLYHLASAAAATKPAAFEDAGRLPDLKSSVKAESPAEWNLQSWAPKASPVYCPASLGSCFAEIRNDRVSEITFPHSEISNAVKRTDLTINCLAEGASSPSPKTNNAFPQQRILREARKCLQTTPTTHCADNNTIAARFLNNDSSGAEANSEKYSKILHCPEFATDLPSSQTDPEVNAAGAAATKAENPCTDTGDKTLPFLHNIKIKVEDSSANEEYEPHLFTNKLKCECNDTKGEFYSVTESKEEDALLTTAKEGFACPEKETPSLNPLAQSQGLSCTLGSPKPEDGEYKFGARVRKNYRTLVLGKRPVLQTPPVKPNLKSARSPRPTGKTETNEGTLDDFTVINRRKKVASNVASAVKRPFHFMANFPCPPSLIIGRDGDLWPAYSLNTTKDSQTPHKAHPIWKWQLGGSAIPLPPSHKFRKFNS
UniProt Q15022: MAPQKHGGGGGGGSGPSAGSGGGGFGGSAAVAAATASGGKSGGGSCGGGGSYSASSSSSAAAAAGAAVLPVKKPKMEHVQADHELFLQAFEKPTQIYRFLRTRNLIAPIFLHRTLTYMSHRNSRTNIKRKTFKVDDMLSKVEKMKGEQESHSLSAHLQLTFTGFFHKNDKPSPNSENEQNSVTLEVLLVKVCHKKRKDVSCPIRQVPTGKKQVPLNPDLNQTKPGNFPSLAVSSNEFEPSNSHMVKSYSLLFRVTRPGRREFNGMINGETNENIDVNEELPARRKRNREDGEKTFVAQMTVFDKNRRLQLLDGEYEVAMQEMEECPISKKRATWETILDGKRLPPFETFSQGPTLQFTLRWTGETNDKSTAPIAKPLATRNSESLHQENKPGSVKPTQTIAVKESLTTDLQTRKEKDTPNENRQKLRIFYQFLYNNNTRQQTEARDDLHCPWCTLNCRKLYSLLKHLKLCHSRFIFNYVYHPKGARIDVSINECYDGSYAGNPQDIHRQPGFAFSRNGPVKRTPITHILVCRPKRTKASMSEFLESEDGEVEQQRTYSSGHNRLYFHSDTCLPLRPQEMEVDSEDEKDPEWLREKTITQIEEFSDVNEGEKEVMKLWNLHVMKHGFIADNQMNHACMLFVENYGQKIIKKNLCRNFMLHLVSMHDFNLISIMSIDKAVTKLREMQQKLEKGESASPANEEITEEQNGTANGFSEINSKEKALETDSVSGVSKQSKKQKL
UniProt Q9Y483: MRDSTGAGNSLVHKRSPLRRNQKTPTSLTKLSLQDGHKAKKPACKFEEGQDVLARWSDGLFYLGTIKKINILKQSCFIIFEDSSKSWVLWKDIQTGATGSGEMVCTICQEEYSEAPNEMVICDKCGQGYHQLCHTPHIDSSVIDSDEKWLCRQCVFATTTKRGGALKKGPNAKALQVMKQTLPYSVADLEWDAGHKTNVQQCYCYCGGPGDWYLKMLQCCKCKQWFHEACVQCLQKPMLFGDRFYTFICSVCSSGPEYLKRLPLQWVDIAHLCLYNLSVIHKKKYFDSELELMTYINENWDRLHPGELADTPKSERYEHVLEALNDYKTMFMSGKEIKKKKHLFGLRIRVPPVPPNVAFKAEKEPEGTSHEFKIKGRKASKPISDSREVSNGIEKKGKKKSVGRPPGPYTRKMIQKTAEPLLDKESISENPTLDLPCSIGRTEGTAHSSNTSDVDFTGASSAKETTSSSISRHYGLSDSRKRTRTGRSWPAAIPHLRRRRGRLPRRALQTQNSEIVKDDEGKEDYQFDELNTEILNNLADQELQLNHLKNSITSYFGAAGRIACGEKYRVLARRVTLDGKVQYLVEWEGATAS

Substance | binding
SUZ12 (from UniProt Q15022 1-739) | binds weakly
MTF2 (from UniProt Q9Y483 1-593) | binds weakly

Reference: doi:10.1101/2025.04.12.648529
